Experimental data: PubChem BioAssay AID686943 (Drosophila RNAi Screening Center, 2013)

Purpose: 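Fly genes whose loss alters ERK activation after insulin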 (primary screen)
Cells: Drosophila S2R+ haemocyte-like cells expressing YFP-tagged ERK (Rolled)
Reagents: long dsRNA against Drosophila genes
Conditions: insulin stimulation versus unstimulated cells; dose and duration not given
Read-out: 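Per-plate z-scores of phospho-ERK immunostaining normalised to YFP-tagged ERK, measured with and without insulin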
Reading the numbers: replicate 1, z-score of dpERK with insulin and replicate 2, z-score of dpERK with insulin: higher = more active ERK per ERK-YFP after insulin; replicate 1, z-score of dpERK under basal conditions: higher = more basal active ERK per ERK-YFP; replicate 1, z-score of ERK-YFP with insulin: higher = more YFP-tagged ERK signal
In all, the deposit lists about 23,000 reagents; shown is a random part of those with a known target gene and a result. 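Extra replicates exist only for a retested subset of genes; insulin dose and duration not given; both raised and lowered dpERK matter.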 The numbers tell different reagents against one gene apart. Names joined by + are all predicted targets of the reagent. The record does not give: the amount of reagent, the time to read-out.

no.	gene	reagent	replicate 1, z-score of dpERK with insulin	replicate 2, z-score of dpERK with insulin	replicate 1, z-score of dpERK under basal conditions	replicate 1, z-score of ERK-YFP with insulin
1	Vha26 (Vacuolar H[+]-ATPase 26kD subunit)	1	-0.54	-1.09	-0.39	0.34
2	CG10286	1	-0.29	0.2	-0.58	-0.64
3	CG2124	1	-0.31	0.24	-0.35	0.43
4	Edg91 (Ecdysone-dependent gene 91)	1	0.65	0.37	0.05	-0.42
5	Cyp313b1 (Cytochrome P450 313b1)	1	-0.04	-0.27	-1.11	0.02
6	mRpL21 (mitochondrial ribosomal protein L21)	1	-0.41	-0.12	-1.38	1.32
7	CG15450	1	0.47	-0.2	0.11	0.03
8	Ntl (Neurotransmitter transporter-like)	1	0.06	0.58	-0.77	0.86
9	CG31233	1	0.93	-0.45	0.54	-0.53
10	CG3040	1	0.17	-2.59	0.9	-0.05
11	Jwa	1	-0.13	0.86	-0.58	0.2
12	CG18808	1	-0.9	0		0.08
13	Rh50	1	1.24	0.82	-0.39	-0.25
14	Arl8 (ADP ribosylation factor-like 8)	1	0.02	-1.44	-0.59	-0.9
15	CG31957	1	0.49	0.7	0.12	-1.33
16	CG43117	1	1.33	0.28	0.2	-0.12
17	hpo (hippo)	1	-0.38	-0.31	0.05	0.41
18	TpnC4 (Troponin C isoform 4)	1	0.26	-0.67	-0.69	0.33
19	CG32281	1	0.02	-0.92	0.43	-0.32
20	CG13068	1	0.75	0.78	3.57	0.16
21	CG9121	1	0.13	-0.77	0.87	-2.02
22	CG1941	1	0.39	-0.08	-0.79	0.19
23	CG5377	1	-0.53	-0.1	-1.45	0
24	RpS20 (Ribosomal protein S20)	1	0.7	1.32	0.63	-4.81
25	sbr (small bristles)	1	-0.94	-0.93	2.86	-1.21
26	sbr (small bristles)	2	-0.13	-1.2	1.15	-3.17
27	asRNA:CR43477 + CG12256	1	0.59	0.7	1.13	-4.13
28	CG14219	1	0.49	-0.03	-0.57	0.9
29	CG10465	1	0.69	0.33	-0.41	-0.01
30	Mgat3	1	-0.2	-0.45	-0.55	-0.46
31	HP1c (Heterochromatin Protein 1c)	1	-0.06	-0.16	-0.18	0.19
32	CG14507	1	-0.28	1.45	0.36	0.12
33	CG3927	1	0.55	0.89	-0.7	0.1
34	CG3927	2	-0.74	-0.1	0.01	0.44
35	B4	1	5.95	6.08	-1.17	0.27
36	B4	2	0.72	-0.83	-0.23	-0.71
37	Cpr49Ab (Cuticular protein 49Ab)	1	0.08	0.31	0.48	0.96
38	CG6654	1	-1.56	-0.27	-0.11	0.9
39	SNF4Agamma (SNF4/AMP-activated protein kinase gamma subunit)	1	-0.03	0.35	-0.33	-0.73
40	SNF4Agamma (SNF4/AMP-activated protein kinase gamma subunit)	2	-0.13	0.72	0	-0.04
41	SNF4Agamma (SNF4/AMP-activated protein kinase gamma subunit)	3	0.82	-0.83	0.53	-0.03
42	SNF4Agamma (SNF4/AMP-activated protein kinase gamma subunit)	4	-0.63	-1.41	3.29	-0.1

7 entries from above, arranged by “replicate 1, z-score of dpERK with insulin”, ascending:
gene	reagent	replicate 1, z-score of dpERK with insulin	replicate 2, z-score of dpERK with insulin	replicate 1, z-score of dpERK under basal conditions	replicate 1, z-score of ERK-YFP with insulin
sbr (small bristles)	1	-0.94	-0.93	2.86	-1.21
CG5377	1	-0.53	-0.1	-1.45	0
sbr (small bristles)	2	-0.13	-1.2	1.15	-3.17
CG14219	1	0.49	-0.03	-0.57	0.9
asRNA:CR43477 + CG12256	1	0.59	0.7	1.13	-4.13
CG10465	1	0.69	0.33	-0.41	-0.01
RpS20 (Ribosomal protein S20)	1	0.7	1.32	0.63	-4.81
